The record followed here is article PMC7694328, “Synthesis and Glycosidase Inhibition Properties of Calix[8]arene-Based Iminosugar Click Clusters” (Pharmaceuticals, 2020).

By UniProt entry, the sequences of proteins in these tests, tags left out. Residues count along the entry.
UniProt C0HJB3, 1-562 limits assumed: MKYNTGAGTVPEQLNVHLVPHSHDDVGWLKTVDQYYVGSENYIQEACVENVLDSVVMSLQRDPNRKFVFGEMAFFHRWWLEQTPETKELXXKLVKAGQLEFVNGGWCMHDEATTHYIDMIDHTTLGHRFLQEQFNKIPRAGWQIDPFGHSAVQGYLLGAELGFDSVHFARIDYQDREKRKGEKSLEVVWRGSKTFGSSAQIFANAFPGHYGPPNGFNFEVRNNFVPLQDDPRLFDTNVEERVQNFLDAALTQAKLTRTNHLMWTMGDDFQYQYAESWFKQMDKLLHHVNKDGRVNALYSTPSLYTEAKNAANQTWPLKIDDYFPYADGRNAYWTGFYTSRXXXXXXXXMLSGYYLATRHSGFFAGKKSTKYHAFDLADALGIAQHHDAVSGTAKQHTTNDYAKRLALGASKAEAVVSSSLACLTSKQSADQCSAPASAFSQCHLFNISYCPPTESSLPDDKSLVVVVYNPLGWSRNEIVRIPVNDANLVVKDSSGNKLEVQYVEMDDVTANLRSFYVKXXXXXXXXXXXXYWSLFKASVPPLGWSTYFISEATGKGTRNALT
UniProt C0HJB3, 563-981 limits assumed: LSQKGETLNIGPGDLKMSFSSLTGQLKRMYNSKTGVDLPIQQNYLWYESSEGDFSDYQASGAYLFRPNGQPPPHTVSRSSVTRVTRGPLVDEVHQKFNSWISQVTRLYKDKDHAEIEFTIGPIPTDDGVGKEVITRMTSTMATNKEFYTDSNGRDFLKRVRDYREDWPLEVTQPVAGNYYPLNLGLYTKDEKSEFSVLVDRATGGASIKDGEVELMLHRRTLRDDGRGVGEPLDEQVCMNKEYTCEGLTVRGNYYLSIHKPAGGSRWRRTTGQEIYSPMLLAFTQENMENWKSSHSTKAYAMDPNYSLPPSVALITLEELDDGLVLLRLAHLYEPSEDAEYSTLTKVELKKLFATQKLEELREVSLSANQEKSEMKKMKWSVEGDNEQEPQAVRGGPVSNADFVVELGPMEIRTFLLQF

For this experiment, the target named is Jack Bean α-mannosidase (JBα-man) (Canavalia ensiformis, UniProt C0HJB3). As to the kind of experiment: Inhibition assay against Jack Bean α-mannosidase (hydrolysis of p-nitrophenyl-α-D-mannopyranoside). To be noted: rp/number of DNJ units. As to the method: p-nitrophenyl-α-D-mannopyranoside and α-mannosidase (EC 3.2.1.24, from Jack Bean, Km = 2.0 mM pH 5.5) were purchased from Sigma Aldrich(St. Louis, MO, USA).
General procedure for Inhibition assay with basic quench: Inhibitory potencies were determined spectrophotometrically (Versamax 96-well plate spectrophotometer, Molecular Devices Corporation, Sunnyvale, CA, USA) measuring the residual hydrolytic activities of the mannosidase against p-nitrophenyl-α-D-mannopyranoside in the presence and absence of the inhibitor. All kinetics were performed at 25 °C and started by enzyme addition (0.015 U/mL) in a 100 µL assay medium (acetate buffer, 0.2 M, pH = 5) containing substrate (varying concentration from Km/8 to 2Km value) in presence or absence of various concentrations of inhibitor. After 40–50 min incubation, the reaction was quenched by addition of 1M Na2CO3 (100 µL). The absorbance of the resulting solution was determined at 405 nm. Ki values were determined in duplicate or triplicate, using the Dixon and Lineweaver–Burk graphical methods with Microsoft Excel 97-03, or using non-linear regression with GraphPad Prism 7 Software. […]
General procedure for inhibition assay measured continuously: The release of p-nitrophenol was measured continuously at 385 nm to determine initial velocities. […] Ki values were determined in duplicate or quadruplate, using the Dixon graphical method. […]

Not every entry of the source has a single result; some have several. This is not the full list of results. The source may hold further records. The records of an entry differ, and nothing given here explains why; dose, time, organism, isomer or construct need not be as stated for each record.

With `CC(C)(C)c1cc2c(OCc3cn(CCCCCCN4C[C@H](O)[C@@H](O)[C@H](O)[C@H]4CO)nn3)c(c1)Cc1cc(C(C)(C)C)cc(c1OCc1cn(CCCCCCN3C[C@H](O)[C@@H](O)[C@H](O)[C@H]3CO)nn1)Cc1cc(C(C)(C)C)cc(c1OCc1cn(CCCCCCN3C[C@H](O)[C@@H](O)[C@H](O)[C@H]3CO)nn1)Cc1cc(C(C)(C)C)cc(c1OCc1cn(CCCCCCN3C[C@H](O)[C@@H](O)[C@H](O)[C@H]3CO)nn1)Cc1cc(C(C)(C)C)cc(c1OCc1cn(CCCCCCN3C[C@H](O)[C@@H](O)[C@H](O)[C@H]3CO)nn1)Cc1cc(C(C)(C)C)cc(c1OCc1cn(CCCCCCN3C[C@H](O)[C@@H](O)[C@H](O)[C@H]3CO)nn1)Cc1cc(C(C)(C)C)cc(c1OCc1cn(CCCCCCN3C[C@H](O)[C@@H](O)[C@H](O)[C@H]3CO)nn1)Cc1cc(C(C)(C)C)cc(c1OCc1cn(CCCCCCN3C[C@H](O)[C@@H](O)[C@H](O)[C@H]3CO)nn1)C2`, the “rp/n (relative inhibition potency per DNJ unit)” value was < 1 and 0.5.
